Drawing on the supplement of paper PMC12819154, “High-throughput peptide-centric local stability assay extends protein–ligand identification to membrane proteins, tissues and bacteria” (Nature Structural & Molecular Biology, 2025), this text covers log2 fold change for eleven targets.

By UniProt entry, the sequences of proteins in these tests, tags left out. Where a name states a change or a piece, a line headed by the entry shows the natural chain unless it says otherwise.
UniProt P0DMB2: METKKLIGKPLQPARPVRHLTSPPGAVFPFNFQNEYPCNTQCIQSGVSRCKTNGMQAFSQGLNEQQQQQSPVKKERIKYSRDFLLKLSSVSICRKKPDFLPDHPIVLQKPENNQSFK
UniProt P10827: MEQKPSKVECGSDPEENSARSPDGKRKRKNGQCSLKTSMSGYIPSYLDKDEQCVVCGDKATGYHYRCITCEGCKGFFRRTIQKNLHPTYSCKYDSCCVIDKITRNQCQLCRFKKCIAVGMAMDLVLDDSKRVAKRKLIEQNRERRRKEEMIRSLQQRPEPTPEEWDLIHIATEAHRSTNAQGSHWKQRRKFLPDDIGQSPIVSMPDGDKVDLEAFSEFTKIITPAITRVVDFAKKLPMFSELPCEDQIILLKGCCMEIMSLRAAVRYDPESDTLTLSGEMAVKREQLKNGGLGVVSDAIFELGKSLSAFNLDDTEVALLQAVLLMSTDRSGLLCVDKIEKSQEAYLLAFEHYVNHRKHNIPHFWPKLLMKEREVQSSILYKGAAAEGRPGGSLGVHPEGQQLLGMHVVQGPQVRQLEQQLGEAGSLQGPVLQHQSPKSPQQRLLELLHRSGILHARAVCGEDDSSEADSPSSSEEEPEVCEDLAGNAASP
UniProt P04843: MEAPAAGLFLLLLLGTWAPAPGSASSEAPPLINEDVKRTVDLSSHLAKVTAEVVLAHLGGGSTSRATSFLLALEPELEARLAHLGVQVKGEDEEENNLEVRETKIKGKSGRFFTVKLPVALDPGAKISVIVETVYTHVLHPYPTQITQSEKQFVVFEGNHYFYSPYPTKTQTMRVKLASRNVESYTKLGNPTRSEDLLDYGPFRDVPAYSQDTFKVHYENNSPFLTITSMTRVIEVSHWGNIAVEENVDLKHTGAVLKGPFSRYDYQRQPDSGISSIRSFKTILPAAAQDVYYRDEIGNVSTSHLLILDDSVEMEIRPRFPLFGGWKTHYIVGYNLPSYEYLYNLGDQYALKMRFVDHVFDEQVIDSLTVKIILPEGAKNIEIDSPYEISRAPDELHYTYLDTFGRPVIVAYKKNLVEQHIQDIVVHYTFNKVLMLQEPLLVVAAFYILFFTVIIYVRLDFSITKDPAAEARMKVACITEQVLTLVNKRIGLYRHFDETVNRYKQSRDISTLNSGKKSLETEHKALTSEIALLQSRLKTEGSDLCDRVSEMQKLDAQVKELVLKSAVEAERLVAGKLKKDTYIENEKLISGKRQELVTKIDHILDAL
UniProt P11413, whole entry: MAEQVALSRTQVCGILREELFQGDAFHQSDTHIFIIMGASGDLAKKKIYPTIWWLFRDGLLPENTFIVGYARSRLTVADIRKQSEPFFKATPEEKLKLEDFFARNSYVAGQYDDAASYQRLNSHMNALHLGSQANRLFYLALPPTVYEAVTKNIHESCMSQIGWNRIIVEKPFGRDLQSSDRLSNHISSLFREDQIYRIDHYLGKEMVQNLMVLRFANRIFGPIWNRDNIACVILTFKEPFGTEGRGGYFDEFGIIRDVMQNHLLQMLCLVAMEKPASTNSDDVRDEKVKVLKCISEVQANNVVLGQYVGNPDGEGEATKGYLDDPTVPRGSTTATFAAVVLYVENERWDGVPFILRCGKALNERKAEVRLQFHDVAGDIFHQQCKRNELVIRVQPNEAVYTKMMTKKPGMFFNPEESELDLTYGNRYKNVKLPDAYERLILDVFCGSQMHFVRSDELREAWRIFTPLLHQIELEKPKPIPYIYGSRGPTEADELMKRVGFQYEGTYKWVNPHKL
UniProt P11055, whole entry: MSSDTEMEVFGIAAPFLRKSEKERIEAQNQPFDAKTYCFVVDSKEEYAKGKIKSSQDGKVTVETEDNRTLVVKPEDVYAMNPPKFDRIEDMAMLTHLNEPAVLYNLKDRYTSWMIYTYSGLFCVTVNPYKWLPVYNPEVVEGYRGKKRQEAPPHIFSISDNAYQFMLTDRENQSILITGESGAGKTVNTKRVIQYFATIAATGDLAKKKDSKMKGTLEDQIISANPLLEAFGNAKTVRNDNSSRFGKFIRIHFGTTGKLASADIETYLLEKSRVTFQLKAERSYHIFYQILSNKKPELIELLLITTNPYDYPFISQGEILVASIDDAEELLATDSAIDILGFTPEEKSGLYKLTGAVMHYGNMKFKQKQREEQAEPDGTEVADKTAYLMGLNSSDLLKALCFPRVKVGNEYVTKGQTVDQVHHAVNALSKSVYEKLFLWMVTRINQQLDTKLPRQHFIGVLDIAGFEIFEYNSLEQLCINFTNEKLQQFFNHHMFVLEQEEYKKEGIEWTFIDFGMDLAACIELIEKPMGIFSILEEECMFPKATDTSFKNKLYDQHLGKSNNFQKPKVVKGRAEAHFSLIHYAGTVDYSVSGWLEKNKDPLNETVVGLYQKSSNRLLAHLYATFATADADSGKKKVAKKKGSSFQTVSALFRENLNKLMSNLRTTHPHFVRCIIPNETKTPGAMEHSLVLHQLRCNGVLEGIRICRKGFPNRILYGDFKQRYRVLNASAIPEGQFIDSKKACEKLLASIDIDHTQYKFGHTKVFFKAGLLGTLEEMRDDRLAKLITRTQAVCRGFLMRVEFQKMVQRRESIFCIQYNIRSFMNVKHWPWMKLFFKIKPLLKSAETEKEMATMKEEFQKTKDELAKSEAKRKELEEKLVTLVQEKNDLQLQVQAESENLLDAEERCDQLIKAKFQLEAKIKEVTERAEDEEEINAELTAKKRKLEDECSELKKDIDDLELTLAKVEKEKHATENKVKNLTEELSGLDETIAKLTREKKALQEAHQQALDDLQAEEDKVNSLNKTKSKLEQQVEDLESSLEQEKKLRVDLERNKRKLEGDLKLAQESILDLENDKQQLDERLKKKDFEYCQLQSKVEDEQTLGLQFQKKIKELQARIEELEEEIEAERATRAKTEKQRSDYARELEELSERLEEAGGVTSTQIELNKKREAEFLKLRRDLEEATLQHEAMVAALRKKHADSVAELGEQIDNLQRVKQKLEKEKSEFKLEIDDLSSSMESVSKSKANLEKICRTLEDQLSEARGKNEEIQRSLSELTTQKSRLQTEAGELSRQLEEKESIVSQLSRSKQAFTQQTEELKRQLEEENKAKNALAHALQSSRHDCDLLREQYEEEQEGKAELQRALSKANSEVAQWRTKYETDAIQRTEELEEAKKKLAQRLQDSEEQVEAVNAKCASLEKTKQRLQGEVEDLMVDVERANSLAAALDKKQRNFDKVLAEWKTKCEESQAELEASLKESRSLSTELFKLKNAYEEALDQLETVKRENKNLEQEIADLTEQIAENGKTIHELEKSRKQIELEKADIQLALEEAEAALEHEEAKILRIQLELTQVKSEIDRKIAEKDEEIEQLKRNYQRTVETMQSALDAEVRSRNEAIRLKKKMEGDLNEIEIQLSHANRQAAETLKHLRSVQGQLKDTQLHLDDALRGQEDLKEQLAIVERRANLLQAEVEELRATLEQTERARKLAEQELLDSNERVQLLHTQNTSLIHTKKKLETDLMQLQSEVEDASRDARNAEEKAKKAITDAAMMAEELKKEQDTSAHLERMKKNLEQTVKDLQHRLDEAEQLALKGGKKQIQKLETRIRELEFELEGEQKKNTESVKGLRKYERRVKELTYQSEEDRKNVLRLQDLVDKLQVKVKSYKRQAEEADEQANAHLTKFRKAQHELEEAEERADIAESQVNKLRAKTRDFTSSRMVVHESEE
UniProt P0C7T5: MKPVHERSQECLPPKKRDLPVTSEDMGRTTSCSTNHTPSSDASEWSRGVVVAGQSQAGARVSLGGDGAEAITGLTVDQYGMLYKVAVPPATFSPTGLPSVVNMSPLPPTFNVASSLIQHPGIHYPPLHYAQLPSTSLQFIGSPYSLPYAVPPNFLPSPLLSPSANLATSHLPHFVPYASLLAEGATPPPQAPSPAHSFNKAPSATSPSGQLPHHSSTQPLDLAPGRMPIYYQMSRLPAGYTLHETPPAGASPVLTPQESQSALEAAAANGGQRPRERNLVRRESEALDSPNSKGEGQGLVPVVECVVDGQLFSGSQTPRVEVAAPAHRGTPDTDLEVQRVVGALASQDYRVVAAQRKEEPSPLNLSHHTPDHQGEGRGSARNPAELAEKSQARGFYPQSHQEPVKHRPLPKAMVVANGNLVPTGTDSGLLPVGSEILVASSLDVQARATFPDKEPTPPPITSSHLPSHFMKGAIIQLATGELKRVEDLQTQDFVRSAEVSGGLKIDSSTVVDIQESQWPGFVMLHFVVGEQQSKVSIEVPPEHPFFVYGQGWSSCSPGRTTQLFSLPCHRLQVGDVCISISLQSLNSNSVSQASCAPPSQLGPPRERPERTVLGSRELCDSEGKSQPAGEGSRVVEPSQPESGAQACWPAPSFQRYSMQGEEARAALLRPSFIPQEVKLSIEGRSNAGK
UniProt P11908: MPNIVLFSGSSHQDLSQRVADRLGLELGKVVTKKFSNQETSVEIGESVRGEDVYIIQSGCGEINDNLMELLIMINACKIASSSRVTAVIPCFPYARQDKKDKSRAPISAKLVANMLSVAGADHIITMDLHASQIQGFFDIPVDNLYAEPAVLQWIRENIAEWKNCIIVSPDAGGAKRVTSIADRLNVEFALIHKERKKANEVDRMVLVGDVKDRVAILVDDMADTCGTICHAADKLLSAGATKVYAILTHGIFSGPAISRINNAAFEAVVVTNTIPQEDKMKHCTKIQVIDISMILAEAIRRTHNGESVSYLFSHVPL
UniProt P09493, whole entry: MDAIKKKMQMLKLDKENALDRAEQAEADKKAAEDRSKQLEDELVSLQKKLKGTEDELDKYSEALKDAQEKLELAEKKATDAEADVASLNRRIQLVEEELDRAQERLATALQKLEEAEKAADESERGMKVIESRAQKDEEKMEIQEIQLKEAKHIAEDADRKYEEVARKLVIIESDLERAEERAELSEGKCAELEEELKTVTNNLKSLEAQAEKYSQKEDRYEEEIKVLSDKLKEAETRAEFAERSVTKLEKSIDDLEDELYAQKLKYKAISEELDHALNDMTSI
UniProt P13378: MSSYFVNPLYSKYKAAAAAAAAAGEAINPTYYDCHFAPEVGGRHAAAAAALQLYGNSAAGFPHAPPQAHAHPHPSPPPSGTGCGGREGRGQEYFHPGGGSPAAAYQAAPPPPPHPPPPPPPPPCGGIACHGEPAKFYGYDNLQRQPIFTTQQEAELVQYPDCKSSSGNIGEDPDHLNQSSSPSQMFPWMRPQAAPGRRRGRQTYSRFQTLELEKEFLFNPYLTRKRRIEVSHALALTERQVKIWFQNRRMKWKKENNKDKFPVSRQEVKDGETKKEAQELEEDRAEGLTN
UniProt P07948: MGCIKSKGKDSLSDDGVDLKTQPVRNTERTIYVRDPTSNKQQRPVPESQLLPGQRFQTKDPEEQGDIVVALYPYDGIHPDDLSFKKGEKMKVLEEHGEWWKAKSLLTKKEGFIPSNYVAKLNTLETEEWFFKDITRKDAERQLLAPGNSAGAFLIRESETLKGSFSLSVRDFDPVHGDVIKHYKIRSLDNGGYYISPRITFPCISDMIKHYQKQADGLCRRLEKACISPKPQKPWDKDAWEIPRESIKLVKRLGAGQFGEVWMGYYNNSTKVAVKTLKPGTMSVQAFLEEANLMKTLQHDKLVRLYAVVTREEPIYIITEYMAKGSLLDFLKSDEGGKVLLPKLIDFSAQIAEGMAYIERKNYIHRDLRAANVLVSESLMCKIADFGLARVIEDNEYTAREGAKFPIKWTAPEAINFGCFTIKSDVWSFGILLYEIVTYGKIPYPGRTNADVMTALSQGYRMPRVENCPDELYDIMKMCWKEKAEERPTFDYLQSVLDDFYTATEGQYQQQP
UniProt P10244: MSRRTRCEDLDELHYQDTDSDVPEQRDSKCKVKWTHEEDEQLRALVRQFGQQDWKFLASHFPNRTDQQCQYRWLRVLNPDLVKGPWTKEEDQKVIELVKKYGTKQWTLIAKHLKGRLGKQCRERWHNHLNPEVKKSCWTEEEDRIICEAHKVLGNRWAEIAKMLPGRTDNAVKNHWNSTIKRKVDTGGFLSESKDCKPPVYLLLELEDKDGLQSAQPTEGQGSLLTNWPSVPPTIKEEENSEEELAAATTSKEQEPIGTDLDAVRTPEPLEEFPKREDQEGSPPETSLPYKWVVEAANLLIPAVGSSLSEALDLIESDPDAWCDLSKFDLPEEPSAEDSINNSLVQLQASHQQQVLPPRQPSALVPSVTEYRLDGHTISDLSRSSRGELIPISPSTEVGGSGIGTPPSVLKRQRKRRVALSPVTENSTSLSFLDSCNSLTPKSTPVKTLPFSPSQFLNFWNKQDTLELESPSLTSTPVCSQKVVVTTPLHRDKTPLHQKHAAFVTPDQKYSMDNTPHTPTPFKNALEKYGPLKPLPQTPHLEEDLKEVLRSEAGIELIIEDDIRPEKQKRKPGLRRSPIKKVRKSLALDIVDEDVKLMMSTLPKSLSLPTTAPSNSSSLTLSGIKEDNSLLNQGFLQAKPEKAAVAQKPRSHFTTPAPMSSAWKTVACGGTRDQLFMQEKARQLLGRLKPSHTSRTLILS

The other results are listed elsewhere or left out. Small differences around the control level are noise.

Compound in the assay: CN[C@@H]1C[C@H]2O[C@@](C)([C@@H]1OC)n1c3ccccc3c3c4c(c5c6ccccc6n2c5c31)C(=O)NC4 [staurosporine]
The assay can be described thus: log2 fold change of tryptic peptide abundance, ligand vs vehicle (limited proteolysis) (log2 ratio); higher = more trypsin-susceptible (destabilized). Particulars: ligand concentration: 20 uM; sample: K562 cleared lysate; digestion: 4 min, 22 C (HT-PELSA RT4min, Orbitrap Astral).
Turning to “C8orf88 (peptide sequence: LIGKPLQPARPVR, peptide start residue: 6) (UniProt P0DMB2)”, the log2 fold change came out at 0.104.
“UniProt P10827 (peptide sequence: GCCMEIMSLR, peptide start residue: 253)”: the log2 fold change is -0.196.
Regarding “RPN1 (peptide sequence: VACITEQVLTLVNKR, peptide start residue: 475) (UniProt P04843)”, the log2 fold change is -0.199.
The result for “G6PD (peptide sequence: WDGVPFILR, peptide start residue: 349) (UniProt P11413)” reads -0.288.
For “MYH3 (peptide sequence: QLEEENKAK, peptide start residue: 1319) (UniProt P11055)”, the log2 fold change turned out to be 0.341.
On to “ATXN1L (peptide sequence: AALLRPSFIPQEVK, peptide start residue: 665) (UniProt P0C7T5)”, for which the log2 fold change was -0.374.
The result for “PRPS2 (peptide sequence: PNIVLFSGSSHQDLSQR, peptide start residue: 2) (UniProt P11908)” reads -0.102.
The result for “TPM1 (peptide sequence: HIAEDADRK, peptide start residue: 153) (UniProt P09493)” reads -0.242; that for “UniProt P13378 (peptide sequence: EFLFNPYLTR, peptide start residue: 164)”, -0.501.
The result for “LYN (peptide sequence: EGFIPSNYVAK, peptide start residue: 110) (UniProt P07948)” reads -0.299; that for “MYBL2 (peptide sequence: YSMDNTPHTPTPFK, peptide start residue: 510) (UniProt P10244)”, 0.301.
